Results published in PubChem BioAssay AID651803 (National Center for Advancing Translational Sciences (NCATS), 2012).
In all, about 1,200 compounds went through this assay and fewer than 10 were called active. The call rests on the fitted dose curve; in most records, active means well fitted curve in the direction sought with a large enough effect; inconclusive means small, poorly fitted or top-dose-only effect, or another doubt; inactive means no such curve, though single readings can be large or run the other way. The list shows a part of the results.

The chains behind the UniProt entries cited, without tags or fusion partners. Where a name states a change or a piece, a line headed by the entry shows the natural chain unless it says otherwise.
UniProt P11308: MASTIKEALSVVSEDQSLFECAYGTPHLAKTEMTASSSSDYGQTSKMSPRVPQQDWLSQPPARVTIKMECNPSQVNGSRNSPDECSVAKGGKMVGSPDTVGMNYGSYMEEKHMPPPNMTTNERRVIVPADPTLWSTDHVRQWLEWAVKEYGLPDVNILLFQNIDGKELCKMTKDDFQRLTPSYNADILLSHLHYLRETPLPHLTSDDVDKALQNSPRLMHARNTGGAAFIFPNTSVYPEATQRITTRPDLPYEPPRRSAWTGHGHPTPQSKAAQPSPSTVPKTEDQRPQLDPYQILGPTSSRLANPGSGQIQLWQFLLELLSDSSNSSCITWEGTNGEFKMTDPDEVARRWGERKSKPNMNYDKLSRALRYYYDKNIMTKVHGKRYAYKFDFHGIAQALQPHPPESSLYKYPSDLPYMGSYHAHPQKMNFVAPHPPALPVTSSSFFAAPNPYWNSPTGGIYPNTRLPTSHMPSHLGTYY

Each compound was assayed against Transcriptional regulator ERG (Homo sapiens) (UniProt P11308) (assay: qHTS for Small Molecule Inhibitors of the ERG Ets/DNA interaction: TR assay against cherry picks). Conditions: ERG Ets domain-DNA fluorescence polarization, Texas red probe; at 154 µM (top of the series).
Summary of the method: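 Polarization read sequentially for fluorescein (ex 480/em 535 nm) and Texas red (ex 555/em 632 nm) probes, 5 nM and 100 nM solutions, displaced from His-ERG Ets domain (1 uM solution), pH 7.5 Tris/KCl/EDTA/DTT buffer.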
Further: % of control where 0% means no effect.

Activity change, negative = inhibition, inactive:
Cc1cc(=O)oc2cc(OCC(=O)OCC(=O)Nc3ccc(C(C)C)cc3)ccc12 0.864%, CCOc1ccc2[nH]c3c(NCCO)ncnc3c2c1 -27.1%, Cc1cc(NC(=O)CCC(=O)N(CC(=O)NC2CCCC2)c2ccc(C)c(F)c2)no1 1.45%, NC(=O)C1(N2CCCCC2)CCN(C(=O)CSc2nc3ccccc3s2)CC1 -6.18%, CSc1nc2c(c(=O)[nH]1)C(c1cccc(Br)c1)CC(=O)N2 (stereo not given) 0.965%, Cn1c(=O)c(N)c2c3c(c(Br)ccc31)C(=O)c1ccccc1-2 9.63%, COc1ccc(OC)c(NC(=O)c2cn3c4c(ccc(Cl)c4c2=O)OC(C)C3)c1 (stereo not given) 4.44%, O=C(Cc1csc(-c2ccccc2)n1)NCc1ccc(F)cc1 2.44%, COc1ccc(CNC(=O)CN2C(=O)NC3(CCCCCC3)C2=O)cc1OC 10.2%, N#CC12COC3(CCCCC3C1(C#N)C#N)OC2=N (stereo not given) 12.6%, COc1cccc(CN2CCN(S(=O)(=O)c3ccc(NC(C)=O)cc3)CC2)c1OC 0.709%, CCN(C(=O)COC(=O)CSc1ccc(C)cc1C)c1c(N)n(Cc2ccccc2)c(=O)[nH]c1=O 6.29%, O=C(OCC(=O)N1CCN(c2ccccc2)CC1)c1cccc([N+](=O)[O-])c1 -8.8%, Cc1ccccc1C(=O)N/N=C1/SCC(=O)N1Cc1ccccc1 5.82%, CC1(C(=O)O)CCC(C(N)=O)C1(C)C (stereo not given) -16.1%, COc1cc(/C=N/NS(=O)(=O)c2ccc3ccccc3c2)ccc1OCc1ccc(C(=O)O)cc1 -24.2%, CC(=O)Nc1ccc(NC(=O)C(C)OC(=O)C2CCN(S(=O)(=O)c3ccc4c(c3)OCCO4)CC2)cc1 (stereo not given) 1.51%, Oc1ccc(NCc2ccccc2OCc2ccccc2)cc1 3.23%, COc1ccc(-c2n(CC(=O)OC3CC(C)CCC3C(C)C)c3ccccc3[n+]2C)cc1 (stereo not given) 1.26%, O=C(CSC(=S)N1CCCCC1)Nc1ncc2c(n1)CCCC2=O 17.3%, Cn1ccc(C(=O)OCC(=O)Nc2ccccc2)n1 -15.8%, O=C(NCCc1ccc(Cl)cc1)C1CCCN1C(=O)Nc1ccccc1 (stereo not given) 2.2%, Cc1ccc(CNC(=O)COc2ccc(S(=O)(=O)N3CCCC3)cc2)cc1 0.765%, O=C1C(=O)c2ccccc2C(O)=C1C1CCC(c2ccc(Cl)cc2)CC1 (stereo not given) -16.1%, O=C(Nc1ccccc1)Nc1ncc([N+](=O)[O-])s1 -16.8%
